Measurements reported in PubChem BioAssay AID1259254 (NCATS, 2017)
Purpose: 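Gene knock-downs that lead to re-replication, shown by excess G2 DNA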 (primary screen). Cell system: human HCT116 colorectal cancer cells. Knock-down reagent: single siRNA against human genes. Duration: 3 days. Measurement: 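Imaged Hoechst DNA stain sorts each cell into a cycle phase by DNA amount; per plate, G2 fraction set to 0% for non-targeting and 100% for GMNN siRNA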. Scale: G2 robust z-score: higher = more G2 cells, more excess DNA replication. Rule for the call: 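An siRNA counts as active if its G2 robust z-score lies at least 5 MADs above the screen median; here such calls match roughly 38% of GMNN control or more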.
The deposit covers about 59,000 reagents; shown is a part drawn at random. About 1,550 of all reagents (2.6%) count as active. 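G2 share is only a proxy for re-replication; each gene was hit by three separate siRNAs, and active genes were retested.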 The numbers tell different reagents against one gene apart. Not all columns of the deposit are shown. The record does not give: the amount of reagent.

G2 robust z-score, by target and reagent
SERPINC1: #1 -1.16 inactive; #2 0.215 inactive; #3 -1.18 inactive
C5orf47: #1 -0.281 inactive; #2 0.908 inactive; #3 1.74 inactive
GPR137C: #1 -0.717 inactive; #2 -0.474 inactive; #3 -1.08 inactive
THA1P: #1 3.15 inactive; #2 -0.823 inactive; #3 1.16 inactive
AXDND1: #1 -0.473 inactive; #2 2.62 inactive; #3 -0.635 inactive
KRI1: #1 2.02 inactive; #2 0.113 inactive; #3 -0.259 inactive
GUCA1C: #1 -0.213 inactive; #2 0.702 inactive; #3 -0.562 inactive
IQCF3: #1 0.0272 inactive; #2 0.329 inactive; #3 0.1 inactive
SERAC1: #1 2.8 inactive; #2 0.836 inactive; #3 -0.142 inactive
ZNF557: #1 1.21 inactive; #2 0.883 inactive; #3 3.09 inactive
SETD3: #1 -0.58 inactive; #2 1.82 inactive; #3 -0.0295 inactive; #4 -0.153 inactive; #5 -0.301 inactive; #6 -0.649 inactive
HNRNPH2: #1 1.28 inactive; #2 5.32 active; #3 -0.58 inactive
MXRA5: #1 -0.347 inactive; #2 -0.673 inactive; #3 -0.928 inactive
KAT5: #1 2.09 inactive; #2 0.42 inactive; #3 0.544 inactive
FPGS: #1 1.02 inactive; #2 -1.43 inactive; #3 -1.1 inactive

Ordered by “G2 robust z-score” (highest first): some entries from above
target	siRNA no.	G2 robust z-score	call
THA1P	1	3.15	inactive
C5orf47	3	1.74	inactive
C5orf47	2	0.908	inactive
C5orf47	1	-0.281	inactive
GPR137C	2	-0.474	inactive
GPR137C	1	-0.717	inactive
GPR137C	3	-1.08	inactive
SERPINC1	3	-1.18	inactive
